PubChem BioAssay AID743121 | NCATS, 2013

Aim: 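Partners whose loss is lethal together with topoisomerase I blockade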 (primary screen)
System: MDA-MB-231 cells, a human breast cancer line
Reagent: single siRNA against human genes, 20 nM siRNA (0.8 pmol per well)
Timing: 120 h (drug added 48 h after transfection, read 72 h later)
Conditions: camptothecin 20 nM (about EC30) for 72 h; vehicle 0.1% DMSO in parallel plates
Read-out: 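Cell viability by ATP luminescence (CellTiter-Glo) as % of non-targeting siRNA wells, and the log2 ratio of viability without drug over viability with camptothecin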
Scale: log2 vehicle/camptothecin viability: higher = stronger sensitisation to camptothecin; viability with camptothecin: higher = more viable cells
Rule for the call: 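Active genes have an RSA gene-level p-value below 0.001, computed from the ratios of their separate siRNAs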
The deposit covers about 26,000 reagents; this is a random part of them. Over the whole deposit, 167 (0.63%) are marked active. 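Calls are per gene from RSA p-values that are not deposited; an individual active-marked siRNA can sensitise only weakly.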 Unmarked entries are inactive. The numbers tell different reagents against one gene apart. Further read-outs or replicates are left out here.

With FOSL2 #1, what does the deposit list?
log2 vehicle/camptothecin viability: -0.165; viability with camptothecin (% of control): 119

For FOSL2 #2, how do the results read?
log2 vehicle/camptothecin viability: -0.458; viability with camptothecin (% of control): 58.9

How did the screen score FOSL2 #3?
log2 vehicle/camptothecin viability: -0.0312; viability with camptothecin (% of control): 66.1

Which result is listed for FOSL2 #4?
log2 vehicle/camptothecin viability: -0.237; viability with camptothecin (% of control): 80.1

With SACM1L #1, how do the results read?
log2 vehicle/camptothecin viability: 0.0644; viability with camptothecin (% of control): 105

For SACM1L #2, what was measured?
log2 vehicle/camptothecin viability: -0.0609; viability with camptothecin (% of control): 90.6

What is on record for SACM1L #3?
log2 vehicle/camptothecin viability: -0.196; viability with camptothecin (% of control): 75.6

How did the screen score SACM1L #4?
log2 vehicle/camptothecin viability: -0.134; viability with camptothecin (% of control): 85.3

What did the screen give for PTPN1 #1?
log2 vehicle/camptothecin viability: 0.0023; viability with camptothecin (% of control): 62.8

For PTPN1 #2, what was measured?
log2 vehicle/camptothecin viability: -0.367; viability with camptothecin (% of control): 121

What is on record for PTPN1 #3?
log2 vehicle/camptothecin viability: -0.118; viability with camptothecin (% of control): 93

For PTPN1 #4, what does the deposit list?
log2 vehicle/camptothecin viability: -0.206; viability with camptothecin (% of control): 60.6

With MTOR #1, how do the results read?
log2 vehicle/camptothecin viability: -0.388; viability with camptothecin (% of control): 101

For MTOR #2, what does the deposit list?
log2 vehicle/camptothecin viability: -0.325; viability with camptothecin (% of control): 59.1

With MTOR #3, how do the results read?
log2 vehicle/camptothecin viability: -0.411; viability with camptothecin (% of control): 102

Which result is listed for MTOR #4?
log2 vehicle/camptothecin viability: -0.525; viability with camptothecin (% of control): 66.7

What did the screen give for MTOR #5?
log2 vehicle/camptothecin viability: -0.388; viability with camptothecin (% of control): 57.2

For MTOR #6, what does the deposit list?
log2 vehicle/camptothecin viability: -0.315; viability with camptothecin (% of control): 56.9

2 successive records from above:
MTOR #4 — log2 vehicle/camptothecin viability: -0.525; viability with camptothecin (% of control): 66.7
MTOR #5 — log2 vehicle/camptothecin viability: -0.388; viability with camptothecin (% of control): 57.2
